The record followed here is patent US8685992B2, “Histone deacetylase inhibitors based simultaneously on trisubstituted 1H-pyrroles and aromatic and heteroaromatic spacers” (Universidad del País Vasco, priority 2009, dated 2014).

The subject of this test is Nuclear Extract from HeLa Cells. Kind of test: HeLa Nuclear Extract HDAC assay. Format: biochemical, human. The conditions noted are these: 50 μM substrate, 30° C., 2 h, read-out: IC50 (nM) of enzyme activity HeLa.

The term IC50 denotes the concentration that gives 50% inhibition. Take `O=C(CCCCCCC(=O)Nc1ccccc1)NO` [SAHA, suberoylanilide hydroxamic acid, reference compound]: the IC50 came out at 24.5 nM.
